# Percent effect of library compounds

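Whole-parasite assay of Trypanosoma brucei over 72 hours; the read-out is not stated. Tested at 30 µM. Direction is inferred from retests: higher values go with stronger inhibition. Values scatter widely below zero; nearly all retest evidence comes from the higher of the two concentrations used. Of about 64,000 compounds tested this way, about 940 (1.5%) reached 50% or more in at least one test.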

Values are the deposited “Percent Effect”, in %.
The record does not define 0% and 100%; most values in the screen are far below 50% and negative numbers occur (in some assays of this library far below -100).
This is an unselected part of the compounds tested.

SMILES: O=C(O)C(F)(F)F.[H][C@@]12CCN(CC3CC3)C[C@@]1([H])O[C@@H](c1nc(C)no1)C2
percent effect: -1.05

SMILES: COCC(C)N(C)C(=O)c1nc(S(C)(=O)=O)n2ccccc12 (stereo not drawn)
percent effect: -2.994

SMILES: OC1(CN2CCCC2)COCCN(c2ncnc3[nH]cnc23)C1 (stereo not drawn)
percent effect: 2.019

SMILES: CCN(CC)S(=O)(=O)N1CCCC1CC(=O)c1cccs1 (stereo not drawn)
percent effect: -5.825

SMILES: O=C(CC1COCCN1C(=O)c1cscn1)c1ccccc1 (stereo not drawn)
percent effect: -9.357

SMILES: O=S(=O)(c1c(N2CCCC2)ccc2nonc12)N1CCCC1
percent effect: -9.188

SMILES: Cc1cc(C)n(Cc2ccc(-c3noc(C(=O)NC[C@@H](C)O)n3)cc2)n1
percent effect: -23

SMILES: CC(C)(C)n1ncc(C(=O)NCCCC(N)=O)c1C(F)(F)F
percent effect: 1.329

SMILES: O=C(CCCn1cccn1)N1CCCC(n2cncn2)C1 (stereo not drawn)
percent effect: -29.67

SMILES: O=C(c1cscn1)N1CCC(O)(Cn2ccc3ccncc32)CC1
percent effect: 8.298

SMILES: COc1cccc(CNC2CCc3ccc(C)cc32)n1 (stereo not drawn)
percent effect: 102.5

SMILES: CC(C)n1cnnc1CN(C)Cc1ccc(CN(C)S(C)(=O)=O)o1
percent effect: -3.755

SMILES: COCCC(=O)N1CCCC1c1nc(O)cc(C(C)C)n1 (stereo not drawn)
percent effect: -5.492

SMILES: Cc1noc(C)c1CN1CCC(NC(=O)OC(C)(C)C)CC1
percent effect: -15.76

SMILES: Cc1c(F)cc(C(=O)O)cc1S(=O)(=O)Nc1ccc(F)c(C#N)c1
percent effect: -12.62

SMILES: CC(=O)Nc1cccc(OCCNC(=O)N(C)Cc2ccco2)c1
percent effect: 18.26

SMILES: CC(=O)NCC1CCC2(CCN(c3ncnc4oc(C)nc34)CC2)O1 (stereo not drawn)
percent effect: -16.96

SMILES: CNS(=O)(=O)CCN1CC(c2ccccc2)(c2ccccc2)CCC1=O
percent effect: -62.74

SMILES: COCCn1ccc(=O)c(OCC(=O)Nc2cccc(Cl)c2)c1C
percent effect: 9.699

SMILES: CCC(CNC(=O)C1CC1)(OC)c1ccccc1 (stereo not drawn)
percent effect: -40.55

SMILES: CCN(CC(F)(F)F)C(=O)C1CCCN(Cc2cscn2)C1 (stereo not drawn)
percent effect: -39.41

SMILES: O=C(CCNc1ncccn1)N1CCN(c2nccs2)CC1
percent effect: -29.47

SMILES: COc1ccc(Br)c(C(=O)NCCNc2ccc(C(F)(F)F)cn2)c1
percent effect: 17.94

SMILES: Cc1nc(COc2cccc(C#N)c2)no1
percent effect: 21.14

SMILES: Cc1cc(C(=O)NC(C)Cc2ccccc2Cl)n(C)n1 (stereo not drawn)
percent effect: -89.99

SMILES: CN1CCN(C)c2cc(NC(=O)c3cc[nH]n3)ccc2C1
percent effect: -23.55

SMILES: CC1CN(CC(=O)NC2CCCC2)CCN1c1ccc2nncn2n1 (stereo not drawn)
percent effect: -13.42

SMILES: [H][C@]12CC[C@@]3(N=C(c4ccccc4)NC3=O)[C@@]1([H])CN(C(=O)c1cccs1)C2
percent effect: -29.85

SMILES: Fc1ccccc1CN1CCC[C@@H](Cn2nnc(-c3cccs3)n2)C1
percent effect: -5.522

SMILES: COc1ccc(CN2CCN(S(=O)(=O)c3cc(C(=O)O)cs3)CC2)cc1
percent effect: -27.74

SMILES: NC(=O)c1ccc(OCCCN2CCC3(CC2)OCCCC3O)cc1 (stereo not drawn)
percent effect: -12.59

SMILES: [H][C@@]12CN(Cc3cccc(Oc4ccccc4)c3)C[C@]1(C(=O)O)CNC2=O
percent effect: 2.253

SMILES: CN(C)C(=O)CNC(=O)c1ccc(Cl)cc1F
percent effect: 0.6043

SMILES: CCOCCCNC(=O)Cc1cccc(F)c1
percent effect: -26.57

SMILES: [H][C@@]12CCC(=O)N(CCc3c[nH]cn3)[C@]1([H])CCN(Cc1cccnc1)C2
percent effect: -45.07

SMILES: CC(C)Nc1cccc(CNC(=O)N2CCC[C@@H]2CO)c1
percent effect: -15.16

SMILES: CCN(C(c1cccnc1)c1ccc2c(c1)CCO2)S(C)(=O)=O (stereo not drawn)
percent effect: 11.52

SMILES: CC(C)(C)n1ncc2c(=O)n(CC(=O)NCc3ccco3)cnc21
percent effect: -3.069

SMILES: Cc1cc(CN2Cc3ccccc3CC2c2nnc(C)o2)on1 (stereo not drawn)
percent effect: -11.82

SMILES: CC(=O)c1ccc(Cl)c(Cl)c1OCC(=O)NC(C)C
percent effect: -11.31

SMILES: CN(CC(=O)Nc1nc2c(s1)CCC2)C(=O)c1cccs1
percent effect: 3.195

SMILES: Cc1cc(-c2nn(C)c(Cl)c2CN2CCOCC(O)C2)no1 (stereo not drawn)
percent effect: -3.182

SMILES: CNC(=O)CN1CCOCC2(CCCN(Cc3ccoc3)C2)C1 (stereo not drawn)
percent effect: -11.96

SMILES: Cc1ccc(CNC(=O)NCCCn2nc3ccccn3c2=O)s1
percent effect: 14.73

SMILES: CSCCC(O)C(=O)N1CCCN(Cc2cccnc2)CC1 (stereo not drawn)
percent effect: 11.3

SMILES: Cc1ccc(-n2c(COC(C)C)n[nH]c2=O)cc1
percent effect: -20.57

SMILES: O=C(CCc1nccs1)N1CCCC(N2CCNC2=O)C1 (stereo not drawn)
percent effect: -46.62

The first 6 entries again:

With O=C(O)C(F)(F)F.[H][C@@]12CCN(CC3CC3)C[C@@]1([H])O[C@@H](c1nc(C)no1)C2 the screen gave -1.05%.
With COCC(C)N(C)C(=O)c1nc(S(C)(=O)=O)n2ccccc12 (stereo not drawn) the screen gave -2.994%.
With OC1(CN2CCCC2)COCCN(c2ncnc3[nH]cnc23)C1 (stereo not drawn) the screen gave 2.019%.
With CCN(CC)S(=O)(=O)N1CCCC1CC(=O)c1cccs1 (stereo not drawn) the screen gave -5.825%.
With O=C(CC1COCCN1C(=O)c1cscn1)c1ccccc1 (stereo not drawn) the screen gave -9.357%.
With O=S(=O)(c1c(N2CCCC2)ccc2nonc12)N1CCCC1 the screen gave -9.188%.

Measurements from “University of Dundee, Small-Polar-MMV Screening Library” (2021), ChEMBL document CHEMBL3988442.